Primary screen of a compound library

Measurements from “University of Dundee, Small-Polar-MMV Screening Library” (2021), ChEMBL document CHEMBL3988442.

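Assay of Toxoplasma gondii numbers, read through their beta-galactosidase reporter with a colour substrate. Concentration: 50 µM. Higher reads as fewer parasites (inferred from which compounds were picked for retests). About 18,000 compounds were tested under these conditions; 0.94% (about 170) showed 50% or more at least once.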

Values are the deposited “Percent Effect”, in %.
The controls that fix the scale are not given in the record; negative values are as filed.
This is an unselected part of the compounds tested.

Compound	Percent Effect
NCc1ccc(OCC(F)F)cc1	-2.459
CC(C)c1cc(C(F)(F)CN)[nH]n1	-6.411
CC(C(N)=O)n1cccn1 (stereo not given)	-20.95
CC(C)COCCC(=O)Nc1nccs1	97.25
CC(C)(C)OC(=O)NCC1CNCCO1 (stereo not given)	3.605
O=C(NCCN1CCNCC1)C1CCCC1	-7.058
c1coc(C2COCCN2)c1 (stereo not given)	1.186
Cc1nc(-c2ccc(CN)o2)cs1	-1.575
COCc1cccc(S(=O)(=O)N2CC[C@H](N)C2)c1	-3.993
OC(Cc1ccncc1)C(F)(F)F (stereo not given)	-18.2
CC(Oc1ccc2c(c1)OCO2)C(=O)NC1CC1 (stereo not given)	-3.18
CC(=O)N1CCC(NC(=O)c2ccc(Br)o2)CC1	-27.13
COc1cccc(SCC(=O)NC2CC(=O)N(C)C2)c1 (stereo not given)	-20.02
N#CC1CCN(Cc2ccccc2)C1 (stereo not given)	6.674
O=C(NCCN1CCCC1)c1ccco1	-1.187
Nc1nnc(SCC(=O)NCCCc2cccnc2)s1	22.4
NC[C@@H](O)c1cccc(Br)c1	-4.064
O=C1NC(Cc2ccccc2)C(=O)Nc2ccccc21 (stereo not given)	-16.99
NC1CCN(c2cccc(Br)c2)C1 (stereo not given)	14.28
NC(=O)N1CCCN(Cc2ccc(Br)o2)CC1	-2.072
OCC(O)CSCc1nc(-c2ccc(Cl)cc2)no1 (stereo not given)	-4.783
Cc1noc(C)c1CC(=O)N1CCCO1	12.77
COC[C@@H]1CCCN1Cc1ccc(N(C)C)nc1	9.197
COCCCSc1ccccc1S(C)(=O)=O	6.008
CC(C)N(Cc1ccccn1)C(=O)c1cc(Cl)c[nH]1	11.31
CN(C)C(=O)NC1CCNCC1	-18.58
Cc1cccnc1CN(C)Cc1nccn1C	16.97
COc1ccccc1-c1cc(N)no1	0.4328
N#CC1(CS(=O)(=O)N2CCN(CCO)CC2)CCC1	-22.85
CCC(C(=O)Nc1cc(C)ccn1)N(C)C (stereo not given)	-3.976
CC(CCc1cccc(F)c1)N1CCNC(=O)CC1 (stereo not given)	2.969
Cc1ccccc1OCCN1CCC(C(N)=O)CC1	4.224
COC(=O)C(Nc1cnn(C)c1)c1ccccc1F (stereo not given)	-14.73
Cc1cc(CO)nn1C	-0.7033
CC1CCCN(Cc2cc(=O)n(C)c(=O)n2C)CC1 (stereo not given)	-0.9078
CC(=O)Nc1nc(C(=O)NC2CCN(C)CC2)cs1	-4.239
Cc1ccc(C)c(C(=O)N2C[C@@H](CO)[C@H](N(C)C)C2)c1	-7.112
CCCc1nc(C)n[nH]1	-4.874
CC(Cn1cncn1)Nc1ncccc1F (stereo not given)	-0.6163
CN1C[C@@H](N)C[C@H]1c1nc(C2CCOCC2)n[nH]1	-6.605
CCN1CCC(NC(=O)C2CC2)CC1	-26.9
COCc1nn(CC(O)c2cccc(F)c2)c(=O)o1 (stereo not given)	2.766
NC[C@@H]1CCO[C@H]1c1ccccc1	4.127
CC(C)COCC(O)CNC(=O)C1(C#N)CCCC1 (stereo not given)	-1.592
N#CC1(NC(=O)CCc2cccnc2)CCCC1	1.736
N#CCC1COc2ccccc2O1 (stereo not given)	-13.18
CC(=O)NCC1CCN(c2cccc(C(C)O)n2)CC1 (stereo not given)	4.704
Nc1nc(CCNC(=O)CSCCN2CCCC2)cs1	-7.787
CNCc1nc2ccccc2n1CCO	-0.3376
Cc1cc(CNC(=O)c2cc(=O)cc(C)o2)ccn1	24.58
O=C1NC[C@@H]2[C@H]1CCCN2C(=O)c1cc(C2CC2)on1	-0.3938
O=C(NC1CCS(=O)(=O)C1)N1CCc2ccccc2C1 (stereo not given)	-3.907
O=C(NCCN1CCCCC1)c1cnccn1	1.153
Cc1nc(C)c(C(=O)N2CCCC[C@H](N(C)C)C2)o1	-8.112
OCCC1(NCc2ccc(F)cc2)CCOCC1	1.431
CC(=O)Cn1cc(S(=O)(=O)N(C)C)ccc1=O	-6.174
CC(=O)c1ccc(C(=O)NCC(C)CO)cc1 (stereo not given)	1.008
CC(=O)Nc1cccc(CN(C)CCC(C)O)c1 (stereo not given)	-2.49
O=C(CN1CCCN(CC2CC2)CC1)N1CCCC1	4.782
COCCNC(=O)C1CC(c2ccc(Cl)c(Cl)c2)=NO1 (stereo not given)	-0.3815
CC(=O)NCc1coc(-c2ccccc2)n1	9.797
Cc1cc(N(C)C(=O)C(C)N)ccc1Br (stereo not given)	3.121
CN(C(=O)CSc1ccccc1Cl)C1CCS(=O)(=O)C1 (stereo not given)	3.694
CCOc1ccc(C(=O)NC(CC)(CO)CO)cc1	-4.547
COC(=O)NCCc1ccccc1OC	-18.86
OCC1CN(c2ncccn2)CCO1 (stereo not given)	-6.486
NC(=O)c1sccc1NC(=O)c1ncccc1Br	1.014
CS(=O)(=O)CCCNc1ccccc1F	6.287
NCCCOC1CCOC1 (stereo not given)	4.862
CC(C)Cc1cc(CNC(=O)C2CCOC2)on1 (stereo not given)	-2.415
CNc1nc(NCC2(CO)CCC2)ncc1Br	-0.9017
COCCC1(CN2CCCC(C(N)=O)C2)CCC1 (stereo not given)	-0.683
Nc1ncnc(N2CCCCC2)n1	-35.26
CN1CCC(Sc2nc3cc(Br)cnc3[nH]2)C1=O (stereo not given)	-6.368
Cc1cccc(NCC2CCCCN2)n1 (stereo not given)	4.21
CC(Cn1cccn1)NC(=O)c1cncc(Br)c1 (stereo not given)	6.883

Repeated from the top, 4 entries:

* NCc1ccc(OCC(F)F)cc1 | -2.459%
* CC(C)c1cc(C(F)(F)CN)[nH]n1 | -6.411%
* CC(C(N)=O)n1cccn1 (stereo not given) | -20.95%
* CC(C)COCCC(=O)Nc1nccs1 | 97.25%